Assay results from paper PMC8748658.
Results are given in words; binding and its absence hold for the method and conditions named. In cells and extracts the contact can be indirect. These calls come from enrichment with a bait or labelling near it, and not all partners need be listed.

Amino acid sequences for entries named in this document (tags omitted). Residues count along the entry.
UniProt P11627, residues 20-1260: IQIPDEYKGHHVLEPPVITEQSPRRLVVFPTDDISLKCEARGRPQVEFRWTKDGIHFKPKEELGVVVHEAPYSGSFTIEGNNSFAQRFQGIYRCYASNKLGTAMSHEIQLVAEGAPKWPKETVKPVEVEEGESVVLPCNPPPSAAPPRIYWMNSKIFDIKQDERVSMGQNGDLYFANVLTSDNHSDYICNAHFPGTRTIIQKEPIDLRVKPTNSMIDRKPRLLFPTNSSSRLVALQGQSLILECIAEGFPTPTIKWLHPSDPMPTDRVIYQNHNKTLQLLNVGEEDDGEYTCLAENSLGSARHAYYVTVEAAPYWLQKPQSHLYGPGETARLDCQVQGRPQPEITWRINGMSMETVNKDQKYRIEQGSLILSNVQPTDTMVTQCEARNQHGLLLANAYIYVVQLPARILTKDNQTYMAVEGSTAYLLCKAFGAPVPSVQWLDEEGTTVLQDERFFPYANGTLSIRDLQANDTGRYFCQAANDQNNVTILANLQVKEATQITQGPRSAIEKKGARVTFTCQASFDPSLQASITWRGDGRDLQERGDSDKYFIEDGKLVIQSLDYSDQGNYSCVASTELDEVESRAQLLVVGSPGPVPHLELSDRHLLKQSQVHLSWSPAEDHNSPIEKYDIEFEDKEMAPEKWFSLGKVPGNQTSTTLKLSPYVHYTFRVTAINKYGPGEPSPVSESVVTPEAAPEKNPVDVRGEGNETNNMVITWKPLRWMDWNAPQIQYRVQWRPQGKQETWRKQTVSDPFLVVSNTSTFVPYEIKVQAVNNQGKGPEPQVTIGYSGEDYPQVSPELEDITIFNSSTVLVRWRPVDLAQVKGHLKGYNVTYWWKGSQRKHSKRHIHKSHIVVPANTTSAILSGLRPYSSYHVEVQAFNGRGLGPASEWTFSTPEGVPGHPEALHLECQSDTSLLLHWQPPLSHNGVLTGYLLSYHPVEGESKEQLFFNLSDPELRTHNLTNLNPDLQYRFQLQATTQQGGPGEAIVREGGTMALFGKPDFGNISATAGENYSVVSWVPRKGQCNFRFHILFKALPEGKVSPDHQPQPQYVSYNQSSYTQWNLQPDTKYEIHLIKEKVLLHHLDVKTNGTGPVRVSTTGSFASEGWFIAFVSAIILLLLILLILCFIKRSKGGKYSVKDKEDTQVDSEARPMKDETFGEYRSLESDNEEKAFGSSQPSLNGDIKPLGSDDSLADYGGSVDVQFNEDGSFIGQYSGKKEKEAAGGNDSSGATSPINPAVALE

Biological target: cell adhesion molecule L1 (mouse (endogenous in brain)) (UniProt P11627)
Assay: affinity purification with mass spectrometry; co-immunoprecipitation of L1 from 5- to 7-day-old wild-type mouse brain, mass spectrometry of the precipitate

binding: binds
B1: topoisomerase 1 (Top1) (enzyme, UniProt Q04750 1-767)
chain: MSGDHLHNDSQIEADFRLNDSHKHKDKHKDREHRHKEHKKDKDKDREKSKHSNSEHKDSEKKHKEKEKTKHKDGSSEKHKDKHKDRDKERRKEEKIRAAGDAKIKKEKENGFSSPPRIKDEPEDDGYFAPPKEDIKPLKRLRDEDDADYKPKKIKTEDIKKEKKRKSEEEEDGKLKKPKNKDKDKKVAEPDNKKKKPKKEEEQKWKWWEEERYPEGIKWKFLEHKGPVFAPPYEPLPESVKFYYDGKVMKLSPKAEEVATFFAKMLDHEYTTKEIFRKNFFKDWRKEMTNDEKNTITNLSKCDFTQMSQYFKAQSEARKQMSKEEKLKIKEENEKLLKEYGFCVMDNHRERIANFKIEPPGLFRGRGNHPKMGMLKRRIMPEDIIINCSKDAKVPSPPPGHKWKEVRHDNKVTWLVSWTENIQGSIKYIMLNPSSRIKGEKDWQKYETARRLKKCVDKIRNQYREDWKSKEMKVRQRAVALYFIDKLALRAGNEKEEGETADTVGCCSLRVEHINLHPELDGQEYVVEFDFPGKDSIRYYNKVPVEKRVFKNLQLFMENKQPEDDLFDRLNTGILNKHLQDLMEGLTAKVFRTYNASITLQQQLKELTAPDENVPAKILSYNRANRAVAILCNHQRAPPKTFEKSMMNLQSKIDAKKDQLADARRDLKSAKADAKVMKDAKTKKVVESKKKAVQRLEEQLMKLEVQATDREENKQIALGTSKLNYLDPRITVAWCKKWGVPIEKIYNKTQREKFAWAIDMTDEDYEF
